Data from the supplement of paper PMC9744312.
Where a name gives a salt, the structure may show the parent alone. The list shows a part of the results. The data scatter; read single values as rough.

These compounds were tested on Peyronie's disease tunica albuginea primary fibroblasts (assay: inhibition of TGF-beta1-induced alpha-SMA expression (myofibroblast transformation), relative to TGF-beta1-only and untreated controls; higher = stronger inhibition of myofibroblast transformation). Settings: 10 µM; TGF-beta1 10 ng/mL; 72 h.

SMILES | inhibition of TGF-beta1-induced alpha-SMA expression [%]
CN(C)CCCN1c2ccccc2Sc2ccccc21 [Promazine hydrochloride] | 40.1
CC(=O)O[C@]1(C(C)=O)CC[C@H]2[C@@H]3C[C@H](C)C4=CC(=O)C=C[C@]4(C)[C@@]3(F)[C@@H](O)C[C@@]21C [Fluorometholone Acetate] | 10.5
O=C[C@H](O)[C@@H](O)[C@H](O)CO [Xylose] | -15.1
CC(C)(C(=O)O)c1ccc(C(O)CCCN2CCC(C(O)(c3ccccc3)c3ccccc3)CC2)cc1 (stereo not drawn) [Fexofenadine HCl] | -1.55
Cc1c(C)c2c(c(C)c1O)CCC(C)(COc1ccc(CC3SC(=O)NC3=O)cc1)O2 (stereo not drawn) [Troglitazone (CS-045)] | -24
Cc1ccccc1-c1cc(N2CCN(C)CC2)ncc1N(C)C(=O)C(C)(C)c1cc(C(F)(F)F)cc(C(F)(F)F)c1 [Netupitant] | 1.86
C[N+]1(C)[C@@H]2CC[C@H]1C[C@@H](OC(=O)C(O)c1ccccc1)C2 (stereo partly drawn) [Homatropine Methylbromide] | 76.2
COC(c1ccccc1)(c1ccccc1)[C@H](Oc1nc(C)cc(C)n1)C(=O)O [Ambrisentan] | 23.5
COC(=O)C1=C(C)NC(C)=C(C(=O)OCCN2CCN(C(c3ccccc3)c3ccccc3)CC2)C1c1cccc([N+](=O)[O-])c1 (stereo not drawn) [Manidipine] | 32.2
COC(=O)C1=C(C)NC(C)=C(C(=O)OCCN2CCN(C(c3ccccc3)c3ccccc3)CC2)C1c1cccc([N+](=O)[O-])c1 (stereo not drawn) [Manidipine 2HCl] | 2.14
CC(=O)Nc1ccccc1 [Acetanilide] | 5.95
C[N+]1(C)[C@@H]2C[C@@H](OC(=O)C(O)(c3cccs3)c3cccs3)C[C@H]1[C@@H]1O[C@@H]12 [Tiotropium Bromide hydrate] | 9.12
CC(C(=O)O)c1ccc2c(c1)Cc1cccnc1O2 (stereo not drawn) [Pranoprofen] | 22.7
C[C@H]1COc2c(C3(N)CC3)c(F)cc3c(=O)c(C(=O)O)cn1c23 [Pazufloxacin mesylate] | -14.9
CC(C)(C)C(=O)Oc1ccc(S(=O)(=O)Nc2ccccc2C(=O)NCC(=O)O)cc1 [Sivelestat (ONO-5046)] | 28.6
CC(C)(C)C(=O)Oc1ccc(S(=O)(=O)Nc2ccccc2C(=O)NCC(=O)O)cc1 [Sivelestat sodium tetrahydrate] | 20.3
COC(=O)Nc1nc2cc(C(=O)c3ccccc3)ccc2[nH]1 [Mebendazole] | > 100
CC1(C)S[C@@H]2[C@H](NC(=O)[C@H](NC(=O)N3CCNC3=O)c3ccccc3)C(=O)N2[C@H]1C(=O)O [Azlocillin sodium salt] | 11.2
Cc1cc2c(cc1S(N)(=O)=O)S(=O)(=O)CCC2 [Meticrane] | 74.2
CC(C)OC(=O)[C@H](C)N[P@](=O)(OC[C@H]1O[C@@H](n2ccc(=O)[nH]c2=O)[C@](C)(F)[C@@H]1O)Oc1ccccc1 [Sofosbuvir (PSI-7977, GS-7977)] | -14.8
CN1C(C)(C)CCCC1(C)C [Pempidine] | 30.4
Cc1onc(-c2c(Cl)cccc2Cl)c1C(=O)N[C@@H]1C(=O)N2[C@@H]1SC(C)(C)[C@@H]2C(=O)O [Dicloxacillin Sodium] | -66.1
CN(C)/N=N/c1[nH]cnc1C(N)=O [Dacarbazine] | -13.6

SMILES | inhibition of TGF-beta1-induced alpha-SMA expression [%]
C[N+](C)(C)CCCCCC[N+](C)(C)C [Hexamethonium?Dibromide] | -10.1
O=c1ccc2ccc(OCCCCN3CCN(c4cccc5sccc45)CC3)cc2[nH]1 [Brexpiprazole] | 39.1
CC1CC(OC(=O)C(O)c2ccccc2)CC(C)(C)C1 (stereo not drawn) [Cyclandelate] | 55.5
O=C(O)c1cccnc1Nc1cccc(C(F)(F)F)c1 [Niflumic acid] | 24.5
Cc1oncc1C(=O)Nc1ccc(C(F)(F)F)cc1 [Leflunomide] | 26.4
COc1ccc(C(Cl)=C(c2ccc(OC)cc2)c2ccc(OC)cc2)cc1 [Chlorotrianisene] | 95.4
Cc1cn([C@H]2O[C@@H](CO)[C@H](O)[C@H]2F)c(=O)[nH]c1=O [Clevudine] | -1.68
CCOC(=O)[C@H](CCc1ccccc1)N[C@@H](C)C(=O)N1Cc2ccccc2C[C@H]1C(=O)O [Quinapril HCl] | 10.8
CC(CCc1ccccc1)NCC(O)c1ccc(O)c(C(N)=O)c1 (stereo not drawn) [Labetalol HCl] | 33.4
Fc1ccc(C(c2ccc(F)cc2)N2CCN(C/C=C/c3ccccc3)CC2)cc1 [Flunarizine 2HCl] | 0.799
CCCCC(=O)O[C@H]1CC[C@H]2[C@@H]3CCc4cc(O)ccc4[C@H]3CC[C@]12C [Estradiol valerate] | 22.9
O=C(OC[C@H]1O[C@@H](OC(=O)c2cc(O)c(O)c(OC(=O)c3cc(O)c(O)c(O)c3)c2)[C@H](OC(=O)c2cc(O)c(O)c(OC(=O)c3cc(O)c(O)c(O)c3)c2)[C@@H](OC(=O)c2cc(O)c(O)c(OC(=O)c3cc(O)c(O)c(O)c3)c2)[C@@H]1OC(=O)c1cc(O)c(O)c(OC(=O)c2cc(O)c(O)c(O)c2)c1)c1cc(O)c(O)c(OC(=O)c2cc(O)c(O)c(O)c2)c1 [Tannic acid] | 37.1
N=C(N)c1ccc(OCCCCCOc2ccc(C(=N)N)cc2)cc1 [Pentamidine isethionate] | 41.4
OCCOCCN1CCN(C2=Nc3ccccc3Sc3ccccc32)CC1 [Quetiapine Fumarate] | 30.6
CCC(=O)O[C@@H](O[P@](=O)(CCCCc1ccccc1)CC(=O)N1C[C@H](C2CCCCC2)C[C@H]1C(=O)O)C(C)C [Fosinopril Sodium] | 45.2
CC1(C)S[C@@H]2[C@H](NC(=O)[C@H](N)c3ccc(O)cc3)C(=O)N2[C@H]1C(=O)O [Amoxicillin] | -7.2
CC1(C)S[C@@H]2[C@H](NC(=O)[C@H](N)c3ccc(O)cc3)C(=O)N2[C@H]1C(=O)O [Amoxicillin Sodium] | 4.14
CC1(C)S[C@@H]2[C@H](NC(=O)[C@H](N)c3ccc(O)cc3)C(=O)N2[C@H]1C(=O)O [Amoxicillin trihydrate] | -14.9
Nc1nc(Cl)nc2c1ncn2[C@H]1C[C@H](O)[C@@H](CO)O1 [Cladribine] | 4.74
CN[C@@H]1[C@H](O[C@H]2[C@H](O[C@H]3[C@H](O)[C@@H](O)[C@H](N=C(N)N)[C@@H](O)[C@@H]3N=C(N)N)O[C@@H](C)[C@]2(O)C=O)O[C@@H](CO)[C@H](O)[C@H]1O [Streptomycin sulfate] | -24.5
Cn1nnc(-c2ccc(-c3ccc(N4C[C@H](COP(=O)(O)O)OC4=O)cc3F)cn2)n1 [Tedizolid Phosphate] | -40.4
CCOC(=O)C1=C[C@@H](OC(CC)CC)[C@H](NC(C)=O)[C@@H](N)C1 [Oseltamivir Phosphate] | 17.6
C[C@]12CCC(=O)C=C1CC[C@@H]1[C@@H]2[C@@H](O)C[C@@]2(C)[C@H]1CC[C@]2(O)C(=O)CO [Hydrocortisone] | 86.9

Given in CSV form: part of the list above
SMILES,inhibition of TGF-beta1-induced alpha-SMA expression [%]
COc1ccc(C(Cl)=C(c2ccc(OC)cc2)c2ccc(OC)cc2)cc1 [Chlorotrianisene],95.4
Cc1cn([C@H]2O[C@@H](CO)[C@H](O)[C@H]2F)c(=O)[nH]c1=O [Clevudine],-1.68
CCOC(=O)[C@H](CCc1ccccc1)N[C@@H](C)C(=O)N1Cc2ccccc2C[C@H]1C(=O)O [Quinapril HCl],10.8
CC(CCc1ccccc1)NCC(O)c1ccc(O)c(C(N)=O)c1 (stereo not drawn) [Labetalol HCl],33.4
Fc1ccc(C(c2ccc(F)cc2)N2CCN(C/C=C/c3ccccc3)CC2)cc1 [Flunarizine 2HCl],0.799
CCCCC(=O)O[C@H]1CC[C@H]2[C@@H]3CCc4cc(O)ccc4[C@H]3CC[C@]12C [Estradiol valerate],22.9
O=C(OC[C@H]1O[C@@H](OC(=O)c2cc(O)c(O)c(OC(=O)c3cc(O)c(O)c(O)c3)c2)[C@H](OC(=O)c2cc(O)c(O)c(OC(=O)c3cc(O)c(O)c(O)c3)c2)[C@@H](OC(=O)c2cc(O)c(O)c(OC(=O)c3cc(O)c(O)c(O)c3)c2)[C@@H]1OC(=O)c1cc(O)c(O)c(OC(=O)c2cc(O)c(O)c(O)c2)c1)c1cc(O)c(O)c(OC(=O)c2cc(O)c(O)c(O)c2)c1 [Tannic acid],37.1
N=C(N)c1ccc(OCCCCCOc2ccc(C(=N)N)cc2)cc1 [Pentamidine isethionate],41.4
OCCOCCN1CCN(C2=Nc3ccccc3Sc3ccccc32)CC1 [Quetiapine Fumarate],30.6
CCC(=O)O[C@@H](O[P@](=O)(CCCCc1ccccc1)CC(=O)N1C[C@H](C2CCCCC2)C[C@H]1C(=O)O)C(C)C [Fosinopril Sodium],45.2
CC1(C)S[C@@H]2[C@H](NC(=O)[C@H](N)c3ccc(O)cc3)C(=O)N2[C@H]1C(=O)O [Amoxicillin],-7.2
CC1(C)S[C@@H]2[C@H](NC(=O)[C@H](N)c3ccc(O)cc3)C(=O)N2[C@H]1C(=O)O [Amoxicillin Sodium],4.14

Remaining list, next part:

SMILES | inhibition of TGF-beta1-induced alpha-SMA expression [%]
C=C[C@]1(C)C[C@@H](OC(=O)CS[C@@H]2C[C@H]3CC[C@@H](C2)N3C)[C@]2(C)[C@H](C)CC[C@]3(CCC(=O)[C@H]32)[C@@H](C)[C@@H]1O [Retapamulin] | 63.6
CN(N=O)C(=O)NC1C(O)OC(CO)C(O)C1O (stereo not drawn) [Streptozotocin (STZ)] | -28.6
Oc1ncnc2[nH]ncc12 [Allopurinol] | 6.7
CO/N=C(\C(=O)N[C@@H]1C(=O)N2C(C(=O)OCOC(=O)C(C)(C)C)=C(/C=C\c3scnc3C)CS[C@H]12)c1csc(N)n1 [Cefditoren Pivoxil] | 19.3
COc1ccc(CCN(C)CCCC(C#N)(c2ccc(OC)c(OC)c2)C(C)C)cc1OC (stereo not drawn) [Verapamil HCl] | -42.8
Cc1onc(-c2ccccc2)c1-c1ccc(S(N)(=O)=O)cc1 [Valdecoxib] | 40
CCCc1cc(=O)[nH]c(=S)[nH]1 [Propylthiouracil] | 35.2
CCCC(CCC)C(N)=O [Valpromide] | 12.5
C[C@]12CC[C@@H]3c4ccc(O)cc4CC[C@H]3[C@@H]1CC[C@@H]2O [Estradiol] | 12.5
CCCN(CCC)S(=O)(=O)c1ccc(C(=O)O)cc1 [Probenecid] | -11.5
CC(OC(=O)OC1CCCCC1)OC(=O)C1=C(CSc2nnnn2CCN(C)C)CS[C@@H]2[C@H](NC(=O)Cc3csc(N)n3)C(=O)N12 (stereo partly drawn) [Cefotiam Hexetil Hydrochloride] | 34.4
CCN(CC)C(=O)c1cccnc1 [Nikethamide] | 12
CCN(CC)C(=O)c1cccc(C)c1 | 29.8
CN(C)CCOC(c1ccccc1)c1ccccc1 [Diphenhydramine HCl] | -7.99
O=C(O)CSc1nnc(Br)n1-c1ccc(C2CC2)c2ccccc12 [Lesinurad] | -16
CC(=O)[C@H]1CC[C@H]2[C@@H]3CCC4=CC(=O)CC[C@]4(C)[C@H]3CC[C@]12C [Progesterone] | 46.7
CN(C)CC/C=C1/c2ccccc2Sc2ccc(Cl)cc21 [Chlorprothixene hydrochloride] | 69.5
CN(C)CC/C=C1/c2ccccc2Sc2ccc(Cl)cc21 [Chlorprothixene] | 73.4
CC1(C)CCC(C)(C)c2cc(NC(=O)c3ccc(C(=O)O)cc3)ccc21 [Tamibarotene] | -72.9
N[C@@H](Cc1cc(I)c(Oc2cc(I)c(O)c(I)c2)c(I)c1)C(=O)O [Levothyroxine sodium] | 2.72
N[C@@H](Cc1cc(I)c(Oc2cc(I)c(O)c(I)c2)c(I)c1)C(=O)O [L-Thyroxine] | -8.86
COc1cc(C(=O)O)ccc1NC(=O)[C@@H]1N[C@@H](CC(C)(C)C)[C@](C#N)(c2ccc(Cl)cc2F)[C@H]1c1cccc(Cl)c1F [Idasanutlin (RG-7388)] | 7.59
